According to publication PMC11564579:
These are yes or no findings as the source states them, for the method shown. Binding seen in cells or lysates may run through a third protein. Some results given as binding are weak or reduced against the parent protein; the word gives no strength.

Protein sequences, listed by entry. Tags and fused reporters are not part of them. Lines headed by an entry give the natural chain unless they say otherwise; changes in a name come on top. Residues count along the entry.
UniProt O43791: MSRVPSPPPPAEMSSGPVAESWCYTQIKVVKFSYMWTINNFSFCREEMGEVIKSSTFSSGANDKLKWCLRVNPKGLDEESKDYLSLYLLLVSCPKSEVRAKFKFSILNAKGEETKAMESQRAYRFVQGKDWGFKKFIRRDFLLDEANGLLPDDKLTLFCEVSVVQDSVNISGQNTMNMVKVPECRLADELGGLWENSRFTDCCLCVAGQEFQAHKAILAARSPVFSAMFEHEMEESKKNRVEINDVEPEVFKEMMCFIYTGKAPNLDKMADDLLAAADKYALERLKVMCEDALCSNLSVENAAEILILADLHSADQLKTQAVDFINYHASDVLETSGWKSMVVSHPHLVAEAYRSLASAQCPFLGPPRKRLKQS
Speckle-type POZ protein (SPOP), wild type: residues 28-337 of O43791
UniProt Q9P1W9: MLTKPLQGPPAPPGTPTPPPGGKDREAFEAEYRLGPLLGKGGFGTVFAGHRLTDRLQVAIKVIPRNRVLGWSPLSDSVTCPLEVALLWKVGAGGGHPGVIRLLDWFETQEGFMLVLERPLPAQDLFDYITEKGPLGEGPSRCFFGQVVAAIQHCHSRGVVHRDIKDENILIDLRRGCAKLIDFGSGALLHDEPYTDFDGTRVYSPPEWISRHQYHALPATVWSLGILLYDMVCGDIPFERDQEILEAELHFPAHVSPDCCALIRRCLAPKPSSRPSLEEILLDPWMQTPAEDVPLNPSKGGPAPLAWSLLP
UniProt P27361: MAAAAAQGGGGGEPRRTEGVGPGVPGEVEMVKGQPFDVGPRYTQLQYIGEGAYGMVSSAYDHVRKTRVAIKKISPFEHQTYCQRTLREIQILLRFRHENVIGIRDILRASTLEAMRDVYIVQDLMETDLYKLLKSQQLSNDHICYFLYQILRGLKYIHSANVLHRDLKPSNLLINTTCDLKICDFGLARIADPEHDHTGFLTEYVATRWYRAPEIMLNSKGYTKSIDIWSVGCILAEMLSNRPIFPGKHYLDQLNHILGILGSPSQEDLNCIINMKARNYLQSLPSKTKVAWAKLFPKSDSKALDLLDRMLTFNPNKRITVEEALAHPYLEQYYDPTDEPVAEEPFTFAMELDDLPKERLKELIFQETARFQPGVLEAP
UniProt P28482: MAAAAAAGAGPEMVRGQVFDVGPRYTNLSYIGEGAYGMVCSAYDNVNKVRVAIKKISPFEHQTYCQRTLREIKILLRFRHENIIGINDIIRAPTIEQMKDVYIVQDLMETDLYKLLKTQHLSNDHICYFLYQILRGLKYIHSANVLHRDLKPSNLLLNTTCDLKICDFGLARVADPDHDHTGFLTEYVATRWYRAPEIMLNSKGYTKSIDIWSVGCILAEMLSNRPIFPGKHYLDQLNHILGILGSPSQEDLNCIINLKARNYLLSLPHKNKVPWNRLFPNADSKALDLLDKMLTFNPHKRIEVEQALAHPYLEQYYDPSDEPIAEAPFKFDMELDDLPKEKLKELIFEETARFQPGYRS
UniProt P11309: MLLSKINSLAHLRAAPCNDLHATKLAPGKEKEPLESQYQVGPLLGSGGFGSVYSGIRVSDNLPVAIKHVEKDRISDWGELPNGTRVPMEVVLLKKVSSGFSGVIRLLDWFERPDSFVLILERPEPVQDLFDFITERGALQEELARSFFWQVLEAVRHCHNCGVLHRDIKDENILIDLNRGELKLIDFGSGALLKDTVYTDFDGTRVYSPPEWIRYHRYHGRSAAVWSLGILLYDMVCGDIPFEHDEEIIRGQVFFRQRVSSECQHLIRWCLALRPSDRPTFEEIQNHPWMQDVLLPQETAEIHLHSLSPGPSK
UniProt Q9Y572: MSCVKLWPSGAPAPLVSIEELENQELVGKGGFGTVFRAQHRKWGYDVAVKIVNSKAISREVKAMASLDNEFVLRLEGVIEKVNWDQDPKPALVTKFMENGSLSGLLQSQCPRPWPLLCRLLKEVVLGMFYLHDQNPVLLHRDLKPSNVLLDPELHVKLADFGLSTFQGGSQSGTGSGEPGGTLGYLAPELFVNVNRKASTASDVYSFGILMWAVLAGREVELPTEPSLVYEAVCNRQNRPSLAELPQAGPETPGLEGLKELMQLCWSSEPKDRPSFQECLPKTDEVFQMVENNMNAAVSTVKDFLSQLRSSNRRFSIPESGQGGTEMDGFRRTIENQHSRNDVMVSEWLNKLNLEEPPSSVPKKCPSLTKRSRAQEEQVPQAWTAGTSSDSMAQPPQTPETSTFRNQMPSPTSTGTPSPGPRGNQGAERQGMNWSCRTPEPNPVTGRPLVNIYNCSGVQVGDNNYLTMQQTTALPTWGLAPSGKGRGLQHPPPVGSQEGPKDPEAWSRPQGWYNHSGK
UniProt Q13546: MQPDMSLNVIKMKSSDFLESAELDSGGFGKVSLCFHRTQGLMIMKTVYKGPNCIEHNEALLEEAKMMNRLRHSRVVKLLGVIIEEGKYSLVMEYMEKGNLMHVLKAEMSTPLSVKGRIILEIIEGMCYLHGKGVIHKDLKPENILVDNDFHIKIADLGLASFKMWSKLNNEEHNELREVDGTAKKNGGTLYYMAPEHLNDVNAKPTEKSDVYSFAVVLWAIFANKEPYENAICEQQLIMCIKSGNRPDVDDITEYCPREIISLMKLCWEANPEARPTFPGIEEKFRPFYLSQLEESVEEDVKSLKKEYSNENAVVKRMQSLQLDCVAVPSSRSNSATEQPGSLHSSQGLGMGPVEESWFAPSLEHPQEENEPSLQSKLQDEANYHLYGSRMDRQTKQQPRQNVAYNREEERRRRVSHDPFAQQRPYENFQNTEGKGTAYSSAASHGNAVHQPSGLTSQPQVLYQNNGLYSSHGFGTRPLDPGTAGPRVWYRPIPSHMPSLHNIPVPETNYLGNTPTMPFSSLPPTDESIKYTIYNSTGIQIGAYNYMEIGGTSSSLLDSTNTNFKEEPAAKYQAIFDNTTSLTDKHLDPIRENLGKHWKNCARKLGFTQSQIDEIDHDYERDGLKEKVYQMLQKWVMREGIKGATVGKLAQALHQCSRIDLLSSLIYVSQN

What was measured:
[1] = target: SPOP, endogenous in HT-29 cells (human (endogenous in HT-29)) (UniProt O43791); experiment: co-IP; endogenous proteins; 1 mg HT-29 lysate with 5 µg pre-immune or SPOP antibody, overnight; western blot
PIM2 = PIM2 (UniProt Q9P1W9); experiment: co-IP; HEK293T lysates (300-400 µg) expressing tag-fusion proteins; overnight at 4 °C with protein G-Sepharose and 2 µg antibody; wash 20 mM Tris pH 8.0, 100 mM NaCl, 1 mM EDTA, 0.5% NP-40; western blot; for RIPK3-SPOP also lysates treated with λ protein phosphatase (interaction reduced) and cells treated with GF109203X, CHIR99021 or AZD8055 (interaction not lost)
[2] = target: Speckle-type POZ protein (SPOP), wild type (UniProt O43791); experiment: as above
[3] = target: Speckle-type POZ protein (SPOP), wild type (UniProt O43791); experiment: condition: only cells treated with U0126 (MEK/ERK inhibitor); co-IP; HEK293T cells treated with U0126 (MEK/ERK inhibitor); IP and western blot
[4] = target: Speckle-type POZ protein (SPOP), wild type (UniProt O43791); experiment: condition: only cells treated with AZD1208 (pan-PIM inhibitor); co-IP; HEK293T cells treated with AZD1208 (pan-PIM inhibitor); IP and western blot
ERK1 = ERK1 (UniProt P27361); experiment: co-IP; HEK293T lysates (300-400 µg) expressing tag-fusion proteins; overnight at 4 °C with protein G-Sepharose and 2 µg antibody; wash 20 mM Tris pH 8.0, 100 mM NaCl, 1 mM EDTA, 0.5% NP-40; western blot; for RIPK3-SPOP also lysates treated with λ protein phosphatase (interaction reduced) and cells treated with GF109203X, CHIR99021 or AZD8055 (interaction not lost)
ERK2 = ERK2 (UniProt P28482); experiment: as above
KLHL2 = target: T1, KLHL2 (UniProt O95198); experiment: as above
T1 sequence: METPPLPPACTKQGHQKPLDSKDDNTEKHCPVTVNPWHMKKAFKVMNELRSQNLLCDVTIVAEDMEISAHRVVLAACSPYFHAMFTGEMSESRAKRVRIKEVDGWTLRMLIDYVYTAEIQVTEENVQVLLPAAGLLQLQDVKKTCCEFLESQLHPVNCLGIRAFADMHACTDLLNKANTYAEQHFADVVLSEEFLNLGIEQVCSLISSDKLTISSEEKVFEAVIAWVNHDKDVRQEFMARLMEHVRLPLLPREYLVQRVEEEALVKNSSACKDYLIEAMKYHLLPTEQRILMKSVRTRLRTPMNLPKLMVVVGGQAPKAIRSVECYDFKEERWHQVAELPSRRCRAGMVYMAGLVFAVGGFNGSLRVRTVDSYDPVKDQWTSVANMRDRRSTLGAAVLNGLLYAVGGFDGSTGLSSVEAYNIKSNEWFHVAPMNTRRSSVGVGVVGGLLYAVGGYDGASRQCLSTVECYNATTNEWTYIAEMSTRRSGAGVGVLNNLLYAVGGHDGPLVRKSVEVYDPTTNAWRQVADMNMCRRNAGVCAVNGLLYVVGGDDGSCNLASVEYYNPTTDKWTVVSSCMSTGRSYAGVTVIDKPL

PIM1 = PIM1 (UniProt P11309); experiment: as above

With “RIPK3, endogenous in HT-29 cells (from UniProt Q9Y572 1-518)” the binding [1] was “binds”.
For RIPK3-T403A (from UniProt Q9Y572 1-518), the binding (PIM2) was “no binding”.
“receptor-interacting serine/threonine kinase 1 (RIPK1) (from UniProt Q13546 1-671)” was tested, and the binding [2] was “no binding”.
“receptor-interacting serine/threonine kinase 3 (RIPK3), wild type (from UniProt Q9Y572 1-518)” was tested, and the binding [3] was “no binding”, the binding [4] was “no binding” and the binding (ERK1) was “no binding”. The binding (ERK2) was “binds”, the binding (KLHL2) was “binds weakly” and the binding (PIM1) was “no binding”. The binding (PIM2) was “binds” and the binding [2] was “binds”.
